Measured values from the supplement of paper PMC8728848.
The other results are listed elsewhere or left out.

How the values were obtained:
Test in all cases: glycan array binding signal (z-score within array); higher = stronger binding
Details in all cases: glycan notation: IUPAC condensed, linker removed
[1] = target: Man(a1-3)[Man(a1-6)]Man(a1-6)[Man(a1-3)]Man
Method in brief: (§1)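 Glycan array binding is given as a within-array Z-score, which can be read as non-binding when negative. The arrays, 3228 of them, came from the Consortium for Functional Glycomics database and were retained only where the protein sequence was available. Z-scores were averaged across arrays of the same protein sequence at different concentrations or buffers and across linkers.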

[2] = target: Man(a1-3)[Man(a1-6)]Man(a1-6)[Man(a1-3)]Man(b1-4)GlcNAc(b1-4)GlcNAc
Method in brief: as §1

[3] = target: Man(a1-3)[Man(a1-6)]Man(b1-4)GlcNAc(b1-4)GlcNAc
Method in brief: as §1

[4] = target: Man(a1-3)[Man(a1-6)]Man(b1-4)GlcNAc(b1-4)[Fuc(a1-6)]GlcNAc
Method in brief: as §1

Man(a1-6)Man = target: Man(a1-6)Man
Method in brief: as §1

Man(b1-4)GlcNAc = target: Man(b1-4)GlcNAc
Method in brief: as §1

MurNAc(b1-4)GlcNAc = target: MurNAc(b1-4)GlcNAc
Method in brief: as §1

Neu5Ac(a2-3)Gal = target: Neu5Ac(a2-3)Gal
Method in brief: as §1

[5] = target: Neu5Ac(a2-3)Gal(b1-3)GalNAc
Method in brief: as §1

[6] = target: Neu5Ac(a2-3)Gal(b1-3)GalNAc(b1-3)Gal(a1-4)Gal(b1-4)Glc
Method in brief: as §1

[7] = target: Neu5Ac(a2-3)Gal(b1-3)GalNAc(b1-4)[Neu5Ac(a2-3)]Gal(b1-4)Glc
Method in brief: as §1

[8] = target: Neu5Ac(a2-3)Gal(b1-3)GalNAc(b1-4)[Neu5Ac(a2-8)Neu5Ac(a2-3)]Gal(b1-4)Glc
Method in brief: as §1

[9] = target: Neu5Ac(a2-3)Gal(b1-3)GalNAc6S
Method in brief: as §1

[10] = target: Neu5Ac(a2-3)Gal(b1-3)GlcNAc
Method in brief: as §1

[11] = target: Neu5Ac(a2-3)Gal(b1-3)GlcNAc(b1-2)Man
Method in brief: as §1

[12] = target: Neu5Ac(a2-3)Gal(b1-3)GlcNAc(b1-2)Man(a1-3)[GlcNAc(b1-4)][Neu5Ac(a2-3)Gal(b1-3)GlcNAc(b1-2)Man(a1-6)]Man(b1-4)GlcNAc(b1-4)GlcNAc
Method in brief: as §1

[13] = target: Neu5Ac(a2-3)Gal(b1-3)GlcNAc(b1-2)Man(a1-3)[Neu5Ac(a2-3)Gal(b1-3)GlcNAc(b1-2)Man(a1-6)]Man(b1-4)GlcNAc(b1-4)GlcNAc
Method in brief: as §1

[14] = target: Neu5Ac(a2-3)Gal(b1-3)GlcNAc(b1-3)Gal(b1-3)GlcNAc
Method in brief: as §1

[15] = target: Neu5Ac(a2-3)Gal(b1-3)GlcNAc(b1-3)Gal(b1-4)GlcNAc
Method in brief: as §1

[16] = target: Neu5Ac(a2-3)Gal(b1-3)GlcNAc(b1-3)GalNAc
Method in brief: as §1

[17] = target: Neu5Ac(a2-3)Gal(b1-3)GlcNAc(b1-4)Gal(b1-4)Glc
Method in brief: as §1

[18] = target: Neu5Ac(a2-3)Gal(b1-3)GlcNAc(b1-6)GalNAc
Method in brief: as §1

[19] = target: Neu5Ac(a2-3)Gal(b1-3)GlcNAc6S
Method in brief: as §1

[20] = target: Neu5Ac(a2-3)Gal(b1-3)[Fuc(a1-4)]GlcNAc
Method in brief: as §1

[21] = target: Neu5Ac(a2-3)Gal(b1-3)[Fuc(a1-4)]GlcNAc(b1-3)Gal(b1-3)[Fuc(a1-4)]GlcNAc
Method in brief: as §1

[22] = target: Neu5Ac(a2-3)Gal(b1-3)[Fuc(a1-4)]GlcNAc(b1-3)Gal(b1-4)[Fuc(a1-3)]GlcNAc
Method in brief: as §1

[23] = target: Neu5Ac(a2-3)Gal(b1-3)[GlcNAc(b1-6)]GalNAc
Method in brief: as §1

[24] = target: Neu5Ac(a2-3)Gal(b1-3)[Neu5Ac(a2-6)]GalNAc
Method in brief: as §1

[25] = target: Neu5Ac(a2-3)Gal(b1-3)[Neu5Ac(a2-6)]GlcNAc(b1-3)[Fuc(a1-3)[Gal(b1-4)]GlcNAc(b1-6)]Gal(b1-4)Glc
Method in brief: as §1

[26] = target: Neu5Ac(a2-3)Gal(b1-3)]Neu5Ac(a2-3)Gal(b1-4)]GlcNAc
Method in brief: as §1

Neu5Ac(a2-3)Gal(b1-4)Glc = target: Neu5Ac(a2-3)Gal(b1-4)Glc
Method in brief: as §1

[27] = target: Neu5Ac(a2-3)Gal(b1-4)GlcNAc
Method in brief: as §1

[28] = target: Neu5Ac(a2-3)Gal(b1-4)GlcNAc(b1-2)Man
Method in brief: as §1

[29] = target: Neu5Ac(a2-3)Gal(b1-4)GlcNAc(b1-2)Man(a1-3)[GlcNAc(b1-4)][Neu5Ac(a2-3)Gal(b1-4)GlcNAc(b1-2)Man(a1-6)]Man(b1-4)GlcNAc(b1-4)GlcNAc
Method in brief: as §1

[30] = target: Neu5Ac(a2-3)Gal(b1-4)GlcNAc(b1-2)Man(a1-3)[Neu5Ac(a2-3)Gal(b1-4)GlcNAc(b1-2)Man(a1-6)]Man(b1-4)GlcNAc(b1-4)GlcNAc
Method in brief: as §1

[31] = target: Neu5Ac(a2-3)Gal(b1-4)GlcNAc(b1-2)Man(a1-3)[Neu5Ac(a2-3)Gal(b1-4)GlcNAc(b1-2)Man(a1-6)]Man(b1-4)GlcNAc(b1-4)[Fuc(a1-6)]GlcNAc
Method in brief: as §1

[32] = target: Neu5Ac(a2-3)Gal(b1-4)GlcNAc(b1-2)Man(a1-3)[Neu5Ac(a2-6)Gal(b1-4)GlcNAc(b1-2)Man(a1-6)]Man(b1-4)GlcNAc(b1-4)GlcNAc
Method in brief: as §1

[33] = target: Neu5Ac(a2-3)Gal(b1-4)GlcNAc(b1-2)[Neu5Ac(a2-3)Gal(b1-4)GlcNAc(b1-4)]Man(a1-3)[GlcNAc(b1-4)][Neu5Ac(a2-3)Gal(b1-4)GlcNAc(b1-2)[Neu5Ac(a2-3)Gal(b1-4)GlcNAc(b1-6)]Man(a1-6)]Man(b1-4)GlcNAc(b1-4)GlcNAc
Method in brief: as §1

B1: PX15642A-pgi-501-20-501 (Parabacteroides gingivalis) (protein)
chain: CELDRDPEGKDFQQPYTSFVQTKQNRDGLYALLRNTENPRMHFYQELQSDMYCTTITDGNSLAPFVNWDLGILNDHGRADEDEVSGIAGYYFVYNRLNQQANAFVNNTEAALQNQVYKNSTEIANAKSFLAEGKVLQALAIWRLMDRFSFHESVTEVNSGAKDLGVILLKEYNPGYIGPRATKAQCYDYILSRLSEAIEVLPENRESVLYVSRDYAYALRARIYLALGEYGKAAADAKMVVDKYPLIGAADASEFENIYRSDANNPEIIFRGFASATLGSFTATTLNGAAPAGKDIKYNPSAVPFQWVVDLYENEDFRKSVYIAKVVKKDKGYLVNKFLEDKAYRDVQDKPNLKVGARYFSVAEVYLILVESALQTGDTPTAEKYLKALSKARGAEVSVVNMEALQAERTRELIGEGSRLRDMVRWSIPNNHDAFETQPGLEGFANTTPLKAQAPVGFYAYTWEFPQRDRQTNPQLIKNWPI
- glycan array binding signal (z-score) [1]: -0.551
- glycan array binding signal (z-score) [2]: 0.905
- glycan array binding signal (z-score) [3]: -0.744
- glycan array binding signal (z-score) [4]: -0.658
- glycan array binding signal (z-score) (Man(a1-6)Man): -0.524
- glycan array binding signal (z-score) (Man(b1-4)GlcNAc): 0.033
- glycan array binding signal (z-score) (MurNAc(b1-4)GlcNAc): 0.163
- glycan array binding signal (z-score) (Neu5Ac(a2-3)Gal): -0.538
- glycan array binding signal (z-score) [5]: -0.284
- glycan array binding signal (z-score) [6]: -1.25
- glycan array binding signal (z-score) [7]: 0.066
- glycan array binding signal (z-score) [8]: 0.024
- glycan array binding signal (z-score) [9]: -0.605
- glycan array binding signal (z-score) [10]: -0.28
- glycan array binding signal (z-score) [11]: 0.582
- glycan array binding signal (z-score) [12]: -0.206
- glycan array binding signal (z-score) [13]: 0.178
- glycan array binding signal (z-score) [14]: -0.307
- glycan array binding signal (z-score) [15]: 0.998
- glycan array binding signal (z-score) [16]: -0.089
- glycan array binding signal (z-score) [17]: -0.514
- glycan array binding signal (z-score) [18]: -0.686
- glycan array binding signal (z-score) [19]: 0.344
- glycan array binding signal (z-score) [20]: 0.949
- glycan array binding signal (z-score) [21]: 0.472
- glycan array binding signal (z-score) [22]: -0.172
- glycan array binding signal (z-score) [23]: 0.209
- glycan array binding signal (z-score) [24]: 0.267
- glycan array binding signal (z-score) [25]: -0.808
- glycan array binding signal (z-score) [26]: -0.65
- glycan array binding signal (z-score) (Neu5Ac(a2-3)Gal(b1-4)Glc): 0.045
- glycan array binding signal (z-score) [27]: -0.672
- glycan array binding signal (z-score) [28]: 0.139
- glycan array binding signal (z-score) [29]: -0.277
- glycan array binding signal (z-score) [30]: -0.407
- glycan array binding signal (z-score) [31]: -0.756
- glycan array binding signal (z-score) [32]: -0.47
- glycan array binding signal (z-score) [33]: -0.045
